Test results published in paper PMC2973838.
No constants are given. Whether binding was seen depends on the method and setting. Binding seen in cells or lysates may run through a third protein. Some entries that bind do so weakly or less than the wild type. Sequences can lack the tags named with a protein.

Legend:
[1] = molecular target: … CLOCK-ASSOCIATED 1 fused to YFP (CCA1-YFP) (Arabidopsis thaliana) (UniProt P92973); test: co-IP; extracts of nine day-old CCA1-YFP-ox/CKB4-MYC-ox seedlings (LD, ZT3) in RIPA buffer; 4 h at 4°C with Protein G-Sepharose beads conjugated with anti-GFP; detection with anti-MYC
[2] = molecular target: CCA1 fused to the N-terminal fragment of YFP (CCA1-nYFP) (Arabidopsis thaliana) (UniProt P92973); test: split reporter; BiFC in stably over-expressing Arabidopsis plants; YFP N-terminal fragment (nucleotides 1-462) and C-terminal fragment (nucleotides 463-741); confocal microscopy of hypocotyl cells
[3] = molecular target: T1, TOC1 fused to the N-terminal fragment of YFP (TOC1-nYFP) (Arabidopsis thaliana) (UniProt Q9LKL2); test: as above
T1 sequence: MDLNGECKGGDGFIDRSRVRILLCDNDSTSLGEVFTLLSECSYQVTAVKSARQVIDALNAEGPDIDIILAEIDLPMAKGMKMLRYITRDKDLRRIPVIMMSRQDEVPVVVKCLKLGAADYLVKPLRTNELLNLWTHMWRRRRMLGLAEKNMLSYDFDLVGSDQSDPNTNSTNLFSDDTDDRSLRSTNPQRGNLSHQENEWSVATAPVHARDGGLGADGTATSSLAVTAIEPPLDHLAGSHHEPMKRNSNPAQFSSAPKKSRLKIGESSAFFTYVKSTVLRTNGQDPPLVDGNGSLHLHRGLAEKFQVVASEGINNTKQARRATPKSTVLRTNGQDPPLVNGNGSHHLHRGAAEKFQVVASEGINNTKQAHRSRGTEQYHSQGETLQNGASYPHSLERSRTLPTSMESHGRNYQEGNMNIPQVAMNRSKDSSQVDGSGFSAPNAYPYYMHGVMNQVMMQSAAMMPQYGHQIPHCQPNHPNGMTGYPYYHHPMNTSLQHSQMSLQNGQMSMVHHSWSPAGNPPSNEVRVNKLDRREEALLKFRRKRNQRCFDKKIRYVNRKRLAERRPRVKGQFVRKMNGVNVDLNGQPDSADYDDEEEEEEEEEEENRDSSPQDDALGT

B1: CK2 regulatory subunit CKB4 with MYC tag (CKB4-MYC) (protein, UniProt O80507 1-283)
chain: MYKDRSGGGIMGGGGSSRSEILGGAIDRKRINDALDKHLKKSSPSTSRVFTSKDKDSVPSTSTAKSQLHSRSPDVESDTDSEGSDVSGSEGDDTSWISWFCNLRGNEFFCEVDEDYIQDDFNLCGLSGQVPYYDYALDLILDVESSNGDMFTEEQHEMVESAAEMLYGLIHVRYILTTKGMAAMMEKYKNYDFGRCPRVFCCGQSCLPVGQSDIPRSSTVKIYCPKCEDIYYPRSKYQGNIDGAYFGTTFPHLFLMAYGNMKPQKPAQNYVPKIFGFKVHNKQ
**Q.** For B1, which binding [1] is on record?
**A.** The binding was “binds”.

B2: CKB4 fused to the C-terminal fragment of YFP (CKB4-cYFP) (protein, UniProt O80507 1-283)
chain: MYKDRSGGGIMGGGGSSRSEILGGAIDRKRINDALDKHLKKSSPSTSRVFTSKDKDSVPSTSTAKSQLHSRSPDVESDTDSEGSDVSGSEGDDTSWISWFCNLRGNEFFCEVDEDYIQDDFNLCGLSGQVPYYDYALDLILDVESSNGDMFTEEQHEMVESAAEMLYGLIHVRYILTTKGMAAMMEKYKNYDFGRCPRVFCCGQSCLPVGQSDIPRSSTVKIYCPKCEDIYYPRSKYQGNIDGAYFGTTFPHLFLMAYGNMKPQKPAQNYVPKIFGFKVHNKQ
**Q.** For B2, which binding [2] is on record?
**A.** The binding was “binds”.

**Q.** What about the binding [3] of the same binder?
**A.** Its binding is “no binding”.
